Reference: PMC8168955
Changes are numbered by the printed parent chain. These are yes or no findings as the source states them, for the method shown. In cells and extracts the contact can be indirect. Some results given as binding are weak or reduced against the parent protein; the word gives no strength. Sequences can lack the tags named with a protein.

Sequences of proteins named here, by UniProt entry; tags and fusion partners are left off.
UniProt Q86TI2: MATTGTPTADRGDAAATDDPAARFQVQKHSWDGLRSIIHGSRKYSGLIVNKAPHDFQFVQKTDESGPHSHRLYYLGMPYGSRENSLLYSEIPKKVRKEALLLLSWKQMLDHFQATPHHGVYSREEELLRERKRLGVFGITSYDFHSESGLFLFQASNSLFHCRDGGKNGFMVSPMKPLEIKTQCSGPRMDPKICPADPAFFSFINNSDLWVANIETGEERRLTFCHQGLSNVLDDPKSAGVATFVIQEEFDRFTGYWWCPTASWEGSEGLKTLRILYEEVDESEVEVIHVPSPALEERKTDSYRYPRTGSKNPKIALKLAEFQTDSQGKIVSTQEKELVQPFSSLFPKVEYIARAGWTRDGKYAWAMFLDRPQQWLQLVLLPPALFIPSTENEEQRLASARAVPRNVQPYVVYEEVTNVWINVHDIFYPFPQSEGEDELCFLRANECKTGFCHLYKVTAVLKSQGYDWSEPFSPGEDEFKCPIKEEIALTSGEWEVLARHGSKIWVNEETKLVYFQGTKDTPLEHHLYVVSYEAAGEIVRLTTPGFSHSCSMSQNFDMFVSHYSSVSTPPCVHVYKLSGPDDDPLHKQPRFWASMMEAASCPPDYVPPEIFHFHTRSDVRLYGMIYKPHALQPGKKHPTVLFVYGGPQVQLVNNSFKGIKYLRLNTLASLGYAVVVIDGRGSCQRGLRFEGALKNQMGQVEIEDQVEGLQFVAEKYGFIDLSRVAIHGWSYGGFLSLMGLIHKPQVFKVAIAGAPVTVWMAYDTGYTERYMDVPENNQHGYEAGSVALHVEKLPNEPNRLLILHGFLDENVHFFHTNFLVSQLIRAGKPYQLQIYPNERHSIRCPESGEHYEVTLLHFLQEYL

Experiments:
Assay in all cases: co-IP; anti-FLAG-M2-agarose precipitation of NLRP1-3xFLAG (WT or mutant) from HEK293T lysates in 1% NP40 lysis buffer with 150 mM NaCl, 4 hours or overnight at 4°C; DPP9 detected by immunoblot; in Fig 2B cells were treated with 2 μM Talabostat or dimethyl sulfoxide before harvest
[1] = target: T1, human NLRP1-3xFLAG A66V (human) (UniProt Q9C000)
T1 sequence: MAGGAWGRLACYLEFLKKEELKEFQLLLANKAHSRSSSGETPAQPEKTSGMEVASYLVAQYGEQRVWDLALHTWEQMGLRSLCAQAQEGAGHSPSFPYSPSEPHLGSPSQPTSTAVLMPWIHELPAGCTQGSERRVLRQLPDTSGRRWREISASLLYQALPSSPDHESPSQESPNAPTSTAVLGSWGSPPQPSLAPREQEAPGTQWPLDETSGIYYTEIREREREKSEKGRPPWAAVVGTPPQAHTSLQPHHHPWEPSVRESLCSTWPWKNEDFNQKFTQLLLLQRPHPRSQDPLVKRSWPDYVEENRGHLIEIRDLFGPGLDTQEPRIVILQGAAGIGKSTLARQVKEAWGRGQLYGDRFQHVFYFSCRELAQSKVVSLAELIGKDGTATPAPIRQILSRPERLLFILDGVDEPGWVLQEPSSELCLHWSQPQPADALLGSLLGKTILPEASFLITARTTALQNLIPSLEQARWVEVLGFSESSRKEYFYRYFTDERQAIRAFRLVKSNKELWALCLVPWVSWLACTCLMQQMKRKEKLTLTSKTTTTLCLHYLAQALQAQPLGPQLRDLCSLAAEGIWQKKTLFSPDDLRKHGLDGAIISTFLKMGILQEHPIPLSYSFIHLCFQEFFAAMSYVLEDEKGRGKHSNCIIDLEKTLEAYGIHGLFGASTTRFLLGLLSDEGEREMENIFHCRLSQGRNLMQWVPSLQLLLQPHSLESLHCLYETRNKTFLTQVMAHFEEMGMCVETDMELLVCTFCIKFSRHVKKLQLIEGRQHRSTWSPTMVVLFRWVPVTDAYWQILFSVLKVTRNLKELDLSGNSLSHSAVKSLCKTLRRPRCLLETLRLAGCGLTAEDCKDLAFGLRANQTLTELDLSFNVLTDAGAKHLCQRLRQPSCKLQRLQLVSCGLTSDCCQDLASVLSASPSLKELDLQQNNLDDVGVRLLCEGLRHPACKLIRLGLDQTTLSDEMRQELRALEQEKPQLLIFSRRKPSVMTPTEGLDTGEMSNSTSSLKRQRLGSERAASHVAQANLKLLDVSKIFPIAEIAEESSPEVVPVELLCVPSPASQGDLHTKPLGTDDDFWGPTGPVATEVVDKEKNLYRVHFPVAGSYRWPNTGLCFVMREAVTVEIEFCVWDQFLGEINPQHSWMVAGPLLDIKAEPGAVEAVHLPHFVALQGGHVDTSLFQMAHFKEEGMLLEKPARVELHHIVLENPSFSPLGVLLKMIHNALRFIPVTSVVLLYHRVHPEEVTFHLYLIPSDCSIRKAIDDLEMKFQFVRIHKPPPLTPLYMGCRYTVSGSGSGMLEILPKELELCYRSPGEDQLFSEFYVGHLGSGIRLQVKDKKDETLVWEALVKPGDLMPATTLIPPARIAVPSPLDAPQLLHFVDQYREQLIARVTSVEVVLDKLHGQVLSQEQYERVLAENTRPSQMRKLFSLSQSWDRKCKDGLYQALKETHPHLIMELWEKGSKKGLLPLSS

[2] = target: T2, human NLRP1-3xFLAG M1184V (human) (UniProt Q9C000)
T2 sequence: T1 sequence with V66A, M1184V

[3] = target: T3, human NLRP1-3xFLAG A66V/M1184V (human) (UniProt Q9C000)
T3 sequence: T1 sequence with M1184V

[4] = target: T4, human NLRP1-3xFLAG M1184V/P1214R (human) (UniProt Q9C000)
T4 sequence: T1 sequence with V66A, M1184V, P1214R

Measured: binding

dipeptidyl peptidase 9 (from UniProt Q86TI2 1-863) (enzyme)
binds: all assays above
